The values below come from paper PMC7819943, “Rice protein-binding microarrays: a tool to detect cis-acting elements near promoter regions in rice”.

Sequences of proteins named here, by UniProt entry; tags and fusion partners are left off.
UniProt Q0JBA9, entry or part of it: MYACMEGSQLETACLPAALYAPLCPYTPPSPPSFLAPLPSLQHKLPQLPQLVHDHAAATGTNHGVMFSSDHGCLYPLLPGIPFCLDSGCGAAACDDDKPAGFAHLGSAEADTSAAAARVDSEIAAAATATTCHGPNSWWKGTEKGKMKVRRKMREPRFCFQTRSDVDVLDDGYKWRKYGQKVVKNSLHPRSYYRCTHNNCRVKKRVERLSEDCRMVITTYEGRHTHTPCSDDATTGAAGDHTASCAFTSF

This is one part of the list.

The assay deals with OsWRKY34 (Oryza sativa, UniProt Q0JBA9 1-250). Kind of assay: protein-binding microarray (RPBM); PBS, 2% BSA, 51.3 ng/ul salmon testes DNA, 50 uM zinc acetate, 200 nM TF, 25 C, 1 h; high values mean tight binding. The following applies: protein: recombinant; tags: N-terminal polyhistidine and DsRed monomer fusion (pET32a); label: CyDye5-dUTP incorporated in the synthesized complementary strand; 3' TTTTT single-stranded linker to array surface; dsDNA, one strand shown. In short, it runs like this:
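The binding signal is fluorescence intensity per array feature (arbitrary units). Readings came from an Axon 4000B scanner after a washed, 2% BSA-blocked, double-stranded custom Agilent array had been incubated for 1 h at 25 °C with 200 nM protein and 50 µM zinc acetate. The protein was a Ni–NTA-purified transcription factor fused N-terminally to polyhistidine and DsRed, expressed in E. coli BL21-CodonPlus.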
On to “ACTTCATGTACTCTTAACATTATCTGCTTGTACCCTTATCCGGAGTCACCTAGTGCAG”, for which the binding signal was 11100 fluorescence intensity (a.u.).

Regarding “AATGGTATTTAGCCCTCGTGTATCACTTGGTACAAACTCTCGGAGTCACCTAGTGCAG”, the binding signal is 10000 fluorescence intensity (a.u.).

Take “AATTATTGTCACGTTGCTAGGCTCACCTGAATTCACATCGCGGAGTCACCTAGTGCAG”: the binding signal was 9910 fluorescence intensity (a.u.). In the case of “CAGCTGGCGGTTTTGGGTTTTGTGTTTAGGGTTTAGGAACCGGAGTCACCTAGTGCAG” it was 9430 fluorescence intensity (a.u.); in that of “CGCACAACATGCCCGCTCTGCCGTTCTGACGTCGCCGTCGCGGAGTCACCTAGTGCAG”, 9660 fluorescence intensity (a.u.); in that of “ACCATCACACACGCTAGCTCTCTTTCTCGCTTTCACCCGCCGGAGTCACCTAGTGCAG”, 11200 fluorescence intensity (a.u.).

On to “GGTCAAACATTTTAAAAAAAAGTCAACGGCGTCAAATATTCGGAGTCACCTAGTGCAG”, for which the binding signal is 8800 fluorescence intensity (a.u.). The result for “TGGGGTTGGTATTCTGGAGTTAAGTGGTTCACCGCCATGTCGGAGTCACCTAGTGCAG” reads 10300 fluorescence intensity (a.u.). Consider “ATCGTTTGTTATTCAGTTTATCCAGCCAAAATTTAAATTTCGGAGTCACCTAGTGCAG”, for which the binding signal was 9280 fluorescence intensity (a.u.). The result for “AAAATATATATGTACCTATGCGCACACACCACTGCAAACACGGAGTCACCTAGTGCAG” reads 11800 fluorescence intensity (a.u.). With “GGCGTTATTTAGAATAATAGTTGAGGTGTGTAAAGTTTTCCGGAGTCACCTAGTGCAG”, the binding signal is 9510 fluorescence intensity (a.u.). “TGCTCTCGTCTCTTCTTGCTTACAGAAGAATCCTCGCTTCCGGAGTCACCTAGTGCAG”: the binding signal is 9770 fluorescence intensity (a.u.). With “GAACACATATGTCGAAAATTTTTTGGGACTCTTGCCTTTTCGGAGTCACCTAGTGCAG”, the binding signal is 9460 fluorescence intensity (a.u.). In the case of “CAACTGGTTAATGGAGGTTAACTAGCAAAAACCGTTGACTCGGAGTCACCTAGTGCAG” it was 9940 fluorescence intensity (a.u.); in that of “TCTTCTAGGCATGCAACATAATAAAAGTCTTTACTCATACCGGAGTCACCTAGTGCAG”, 8880 fluorescence intensity (a.u.). In the case of “GCTTACTTCCTTTATTATGTTTGCTACTAGCTGAATCAACCGGAGTCACCTAGTGCAG”, the binding signal is 9940 fluorescence intensity (a.u.).

Take “CTTAAGCTTATTCATGTTTTCATCAGTCTGAAACCAAACACGGAGTCACCTAGTGCAG”: the binding signal is 8450 fluorescence intensity (a.u.).

Take “TCCTCCCATCTCTCTCTCTTTTGCCCACACTCTTTTCACACGGAGTCACCTAGTGCAG”: the binding signal was 9330 fluorescence intensity (a.u.). With “GCCTGTTCACTTTGATGCTATTTTCAACCATACCATTTTTCGGAGTCACCTAGTGCAG”, the binding signal was 12200 fluorescence intensity (a.u.). In the case of “CATGTGCTAAAAAGTCAACGGCGTCAAACATTTCAAAACGCGGAGTCACCTAGTGCAG” it was 10300 fluorescence intensity (a.u.); in that of “GAGAACATGGATGGATAGTGGATTTCTTATTGATTGTTGACGGAGTCACCTAGTGCAG”, 8130 fluorescence intensity (a.u.). On to “CGTGAGCGGGTGGTGGTGGTGATGGCGTTCGCGGTGGCGACGGAGTCACCTAGTGCAG”, for which the binding signal is 9660 fluorescence intensity (a.u.).

As to “AACTCATCAGCAACTATCTATCTTTATTTCTGCATCTACTCGGAGTCACCTAGTGCAG”, the binding signal is 10200 fluorescence intensity (a.u.). The result for “GGTCCGGCATCGCCCTCCGCACTATTTTACGTCCCCACATCGGAGTCACCTAGTGCAG” reads 11700 fluorescence intensity (a.u.). The result for “TTTTTAGCGCATGTTTGACCGTTCGTCTTATTCAAAAACTCGGAGTCACCTAGTGCAG” reads 10800 fluorescence intensity (a.u.); that for “GCACCCTGTCACTCCACCTCGAGGCTACCTAGACGTTATTCGGAGTCACCTAGTGCAG”, 9550 fluorescence intensity (a.u.). For the sequence “ACGCGGTGGCTGTTGTCTGTCGCGGTTGTTTCTTGTCTGTCGGAGTCACCTAGTGCAG”, the binding signal was 9170 fluorescence intensity (a.u.). In the case of “TATCTCCTATGGTAAGTTCGCTACTCTCAACCTATAAATACGGAGTCACCTAGTGCAG” it was 8150 fluorescence intensity (a.u.); in that of “GCACAATCGCTCCTTCTACACACCTACCCCATTTTCTTCTCGGAGTCACCTAGTGCAG”, 10100 fluorescence intensity (a.u.). For the sequence “ACATAACACCACTTGATACTATTTCTCTTAATTAATTACTCGGAGTCACCTAGTGCAG”, the binding signal is 9670 fluorescence intensity (a.u.). With “TCCGTTGACCCCATAGTTTCTTACCATCATCGTTTAGAGTCGGAGTCACCTAGTGCAG”, the binding signal is 12700 fluorescence intensity (a.u.). In the case of “ATATGTCTATGATTCGTTACCATATACTCTATCCGTTTCTCGGAGTCACCTAGTGCAG” it was 9810 fluorescence intensity (a.u.); in that of “TTCTGTTGTGTTCACGGTCTACCTTCTCGATTCACCGCGCCGGAGTCACCTAGTGCAG”, 11400 fluorescence intensity (a.u.). In the case of “GCCTCAAAACCCGACCAACCTCAGTTCGGCTCGCGGCTCGCGGAGTCACCTAGTGCAG” it was 9000 fluorescence intensity (a.u.); in that of “GGTGGTCGGGGCTCTGACGCGGCGGGGCGGCGGAGGTGGTCGGAGTCACCTAGTGCAG”, 10800 fluorescence intensity (a.u.). The result for “GGGGAATTGGGGATCTAGCTCGGGGATTTTTTTAGACAGACGGAGTCACCTAGTGCAG” reads 12800 fluorescence intensity (a.u.); that for “ATTTTGACTTTTTCTTGTACTGTTTGACCATTCATCTTATCGGAGTCACCTAGTGCAG”, 16200 fluorescence intensity (a.u.); that for “TGGACCCGGGCTATCCTTTGAACTGGCTATGCGGCTTTCCCGGAGTCACCTAGTGCAG”, 9790 fluorescence intensity (a.u.). In the case of “ACCCTTTTTACGTGGAATACTTAATCTTCATCCTCATCTTCGGAGTCACCTAGTGCAG”, the binding signal was 8470 fluorescence intensity (a.u.).

In the case of “ACTCCAAGATAAATTTTTCTGGACGCCATCTTCTTTTGTTCGGAGTCACCTAGTGCAG”, the binding signal is 8390 fluorescence intensity (a.u.). In the case of “CCTCCTCCAATCGCATTCTCCTCTCCACCTGCTGCATTACCGGAGTCACCTAGTGCAG” it was 8130 fluorescence intensity (a.u.); in that of “ATTTTTCTTTTCTGGTTCCTTCTTTCAGGCCCTTTGAATCCGGAGTCACCTAGTGCAG”, 8640 fluorescence intensity (a.u.).
